According to PMC11199599:
Results are given in words; binding and its absence hold for the method and conditions named. Sequences can lack the tags named with a protein.

Chains of the proteins cited; added tags and fusions are not shown.
UniProt P12004: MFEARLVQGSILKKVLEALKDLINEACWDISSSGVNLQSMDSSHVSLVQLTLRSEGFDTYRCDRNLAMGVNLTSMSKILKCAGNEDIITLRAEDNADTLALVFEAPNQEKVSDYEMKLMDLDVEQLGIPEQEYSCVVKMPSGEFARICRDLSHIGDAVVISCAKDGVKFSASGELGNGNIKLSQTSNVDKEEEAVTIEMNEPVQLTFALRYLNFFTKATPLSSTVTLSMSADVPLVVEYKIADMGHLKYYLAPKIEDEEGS

Target: T1, GST-tagged SNM1A peptide spanning the PBZ and UBZ motifs (GST-PBZ-UBZ) (human)
T1 sequence: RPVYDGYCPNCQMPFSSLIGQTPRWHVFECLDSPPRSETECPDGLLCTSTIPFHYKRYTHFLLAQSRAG
Assay: pull-down; GST-SNM1A peptides held on glutathione-agarose beads, washed with PBS with 250 mM to 1 M salt; 150 ng purified PCNA or PCNA^ub added, tumbled at 4 °C for 1 h, washed as before; immunoblot for PCNA, PCNA^ub, GST; both purified

Human PCNA (from UniProt P12004 1-261)
binding: no binding (tested: 150 ng)
